Screen size: about 220,000 compounds; about 770 (0.35%) were called active. Inconclusive means that the source gave no clear call. Such entries were picked first, then a sample of the others. Rule as the data show it: active = binding response below about 49% or above about 150%; inconclusive = no clear call, values can overlap the other calls; inactive = in between.
What follows are compounds tested against Guanine nucleotide-binding protein G(o) subunit alpha (Homo sapiens) (UniProt P09471) (assay: RGS7-Galphao binding modulators, primary screen, biochemical, multiplexed bead flow cytometry (AID 1439;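 also: fluorescent Galphao held in activated GDP-AlF4 state binding bead-coupled RGS7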)). Conditions: at 10 µM, actives lie on both sides.

Protein sequences, listed by entry. Tags and fused reporters are not part of them.
UniProt P09471, whole entry, looked up: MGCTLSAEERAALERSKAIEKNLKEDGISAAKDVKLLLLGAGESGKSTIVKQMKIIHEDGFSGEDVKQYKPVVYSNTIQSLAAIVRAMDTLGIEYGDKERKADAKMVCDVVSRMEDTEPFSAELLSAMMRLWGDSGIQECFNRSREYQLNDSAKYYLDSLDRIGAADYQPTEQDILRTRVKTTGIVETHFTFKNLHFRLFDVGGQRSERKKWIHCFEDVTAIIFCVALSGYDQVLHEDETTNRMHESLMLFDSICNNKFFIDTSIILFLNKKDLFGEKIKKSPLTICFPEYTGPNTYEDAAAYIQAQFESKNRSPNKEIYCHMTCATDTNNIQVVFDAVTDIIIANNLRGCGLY

| SMILES | binding response (% of control) |
| --- | --- |
| Cc1ccc(N2C(=O)[C@@H]3C(C(=O)CN4C(=O)c5ccccc5C4=O)=NN[C@@H]3C2=O)c(C)c1 | inconclusive: 98.6% |
| N#C/C(=C1/C(=O)Nc2ccc(Br)cc21)c1ccccn1 | inconclusive: 103% |
| O=[N+]([O-])c1ccccc1CSc1ccccn1 | inconclusive: 101% |
| COc1ccc(CCNC(=O)CN2CCN(Cc3ccccc3F)C2=O)cc1OC | inconclusive: 91.6% |
| Cc1cccc(OCC(O)Cn2c(=N)n(Cc3ccccc3)c3ccccc32)c1 (stereo not drawn) | inconclusive: 176% |
| Cc1ccccc1CN1C(=O)CS/C1=N/N=C/c1ccco1 | inconclusive: 79.4% |
| CC(C(=O)OCc1nnc(-c2ccccc2)o1)N1C(=O)c2ccccc2C1=O (stereo not drawn) | inactive: 112% |
| CCC(C)Oc1ccccc1C1CC(=O)NC2=C1C(=O)CCC2 (stereo not drawn) | inactive: 99% |
| Cn1ncc2c(c(SCc3ccc(Cl)cc3Cl)nn2C)c1=O | inconclusive: 80.4% |
| NNC(=O)c1cccc(S(=O)(=O)Nc2cc(Cl)ccc2Cl)c1 | inconclusive: 180% |
| O=C1C2C3C=CC(C4CC34)C2C(=O)N1/N=C/c1ccc(-c2ccc([N+](=O)[O-])cc2)o1 (stereo not drawn) | inconclusive: 103% |
| C=CCC1(CC=C)CCCN1Cc1nc(COc2ccccc2)no1 | inconclusive: -130% |
| CCOC(=O)N1CCN(Cc2c(O)ccc3ccccc23)CC1 | inconclusive: -1.13% |
| Cc1nc(Cl)c(C(=O)NCCC(C)C)c(C)c1[N+](=O)[O-] | inactive: 107% |
| CN(C)C(=O)OCC1COc2ccccc2O1 (stereo not drawn) | inconclusive: 48.6% |
| COc1cc(OC)c2c(-c3ccccc3)cc(=O)oc2c1C(CCN1CCN(c2ccccc2)CC1)c1ccc(N(C)C)cc1 (stereo not drawn) | inconclusive: 123% |
| CCCN(CCC)S(=O)(=O)c1ccc(NC(=O)COc2ccccc2)cc1 | inactive: 103% |
| CCCCNC(=O)OCCNC(=O)NC | inactive: 97.7% |
| CC(C)NC(=O)NC(=O)CSc1nncs1 | inactive: 92.7% |
| Cc1ccnc(NC(=O)c2ccc(Cl)c(NC(=O)CCc3ccccc3)c2)c1 | inconclusive: 89.5% |
| Cc1cc(C)c(NS(=O)(=O)c2ccc(NC(=O)/C=C/C(=O)O)cc2)c(C)c1 | active: -0.24% |
| Cc1nn(-c2ccccc2)c(C)c1/C=N/NC(=O)c1cnccn1 | inconclusive: 99.3% |
| COc1cc(CCCN2C(N)=NC[C@@H]2Cc2ccccc2)cc(OC)c1OC | inconclusive: 87.3% |
| CCOc1cc(O)c(-c2[nH]ncc2-c2nc(C)cs2)cc1CC | inconclusive: 92.4% |

| SMILES | binding response (% of control) |
| --- | --- |
| Cc1nn(-c2ccccc2)c(N)c1Sc1ccccc1[N+](=O)[O-] | inactive: 96.7% |
| CC(=O)Nc1ccc(NC(=O)CSc2nnc(C)c(=O)n2N)cc1 | inconclusive: 129% |
| CC(C)(C)c1ccc(/C=C/C(=O)Nc2nncs2)cc1 | inactive: 99.9% |
| CN(Cc1cn(C)nc1-c1ccccc1F)CC1CCCCO1 (stereo not drawn) | active: 46.1% |
| CC(C)CNCC1OCc2ccccc2CO1 | inconclusive: 102% |
| Cc1ccccc1-n1ccnc1SCC(=O)NCc1ccco1 | inactive: 102% |
| CN1C(=O)/C(=C/C=C2\SCCN2C)SC1=S | inactive: 99.2% |
| CCOc1ccccc1N1CCN(C(=O)CC(C)(C)C)CC1 | inconclusive: 112% |
| CCN(CC)S(=O)(=O)c1cccc(C(=O)NC(C)C(c2cccs2)N2CCCC2)c1 (stereo not drawn) | inconclusive: 168% |
| COC(=O)c1ccccc1OCCCCN1CC(C)OC(C)C1 (stereo not drawn) | active: 254% [activator] |
| COc1ccc(/C=C/c2cc(C(=O)O)c3ccccc3n2)cc1 | inconclusive: 110% |
| CCOC(=O)C(c1ccccc1)C(Nc1cc(C(F)(F)F)cc(C(F)(F)F)c1)c1ccccn1 (stereo not drawn) | inconclusive: 96.2% |
| COc1ccc(CNC(=O)CSc2nnc(C)c(=O)[nH]2)cc1 | inconclusive: 104% |
| N#CC1=C(N)Oc2n[nH]c(-c3cccs3)c2C1c1cccs1 (stereo not drawn) | inactive: 109% |
| COc1cc(/C=N/NC(=O)CSc2ccccn2)ccc1O | inconclusive: 140% |
| Cc1ccc(-c2nc(CN(C)Cc3cccc4cnccc34)c(C)o2)s1 | inactive: 109% |
| N#C/C(=N\Nc1ccc(Cl)cc1)C(=O)c1ccsc1 | inconclusive: 101% |
| O=C(Nc1nc(-c2ccccn2)cs1)c1ccc(S(=O)(=O)N2CCCCC2)cc1 | inconclusive: 114% |
| CN1CCN(NC(=S)Nc2ccc(Oc3ccccc3)cc2)CC1 | inactive: 101% |
| Cc1onc(-c2ccc(Cl)cc2Cl)c1-c1csc(COc2ccccc2)n1 | inconclusive: 160% |
| Cc1ccc(NC(=O)CN(C)C(=O)COc2ccc(C(=O)c3ccc(F)cc3)cc2)cc1 | inactive: 113% |
| COc1ccc2[nH]c3c(=O)n(Cc4ccc(C(=O)NCC5CCCO5)cc4)c(=S)[nH]c3c2c1 (stereo not drawn) | inconclusive: 109% |
| Cc1onc(-c2ccccc2Cl)c1C(=O)NC(=S)NCC(=O)c1ccccc1 | inactive: 97% |
| Cc1nnc(N)s1 | inconclusive: 115% |

| SMILES | binding response (% of control) |
| --- | --- |
| CC(=O)Nc1ccc2c(c1)CN(c1cc(C)ccc1C)CO2 | inactive: 101% |
| Cc1ccc(S(=O)(=O)NCC(c2ccccc2)N2CCCCC2)cc1 (stereo not drawn) | inconclusive: 105% |
| Cc1ccc(NC(=O)CN(Cc2ccccc2)S(C)(=O)=O)cc1C | inactive: 99.1% |
| O=C(c1ccccc1)c1ccccc1C(=O)c1ccccc1 | inconclusive: 92.6% |
| O=C(NCc1ccc(Cl)cc1)C1CCN(S(=O)(=O)c2ccc(F)cc2)CC1 | inconclusive: 99.7% |
| CN(CCO)C(=O)C1CCN(c2ncc(C(F)(F)F)cc2Cl)CC1 | inconclusive: 85.7% |
| O=C(CCN1CCN(C/C=C/c2ccccc2)CC1)Nc1cccc(F)c1 | inactive: 101% |
| N/C(=N\NS(=O)(=O)c1ccccc1C(F)(F)F)c1ccccn1 | inconclusive: 93.4% |
| O=C(Nc1cccc(F)c1)c1ccc(S(=O)(=O)N2CCCC2)cc1 | inactive: 97.7% |
| CC/C(C)=N/NS(=O)(=O)c1ccc(C)c([N+](=O)[O-])c1 | inconclusive: 104% |
| O=C1CC(N2CCSCC2)C(=O)N1c1ccc(F)cc1 (stereo not drawn) | inconclusive: 147% |
| N#Cc1c(N)n(-c2ccc(C(=O)O)cc2)c2nc3ccccc3nc12 | inconclusive: 115% |
| COc1ccccc1C1c2[nH]c3ccccc3c2CCN1Cc1ccc(NC(C)=O)s1 (stereo not drawn) | inconclusive: 102% |
| Cc1nc2cc(C(=O)NCc3cccnc3)ccc2n1-c1ccc(F)cc1F | inactive: 98.5% |
| COC(=O)/C(C#N)=C/c1c(-c2ccccc2)nc2n1CCS2 | inconclusive: 93.4% |
| Cc1ccc(NC(=S)N2CCCC(c3ccccc3)=N2)cc1 | inconclusive: 82.2% |
| CC(C)(C)c1ccc(C(=O)NC(Cc2ccccc2)C(=O)O)cc1 (stereo not drawn) | inactive: 97.8% |
| CSc1ccc(NC(=O)/C=C/C(=O)O)cc1 | inconclusive: 37.6% |
| COc1ccc(C2CC(O)(c3ccccc3)Oc3c(C)ccc(C)c32)cc1 (stereo not drawn) | inconclusive: 96.8% |
| Cc1cc(=O)c2cc3nc(-c4cccnc4)oc3c(Br)c2o1 | inconclusive: 113% |
| NS(=O)(=O)c1cc2c(cc1Cl)NC(CC1CCCC1)NS2(=O)=O (stereo not drawn) | inconclusive: 117% |
| O=C(C1=C(O)C(=O)N(c2ccccc2)C1c1ccc([N+](=O)[O-])cc1)c1cccs1 (stereo not drawn) | inactive: 97.1% |
| Cc1nn(-c2ccccc2)c(C)c1/C=N/NC(=O)c1ccccc1NS(=O)(=O)c1cccs1 | inactive: 102% |
| CCc1ccccc1N1CN(Cc2ccco2)CNC1=S | inconclusive: 63.3% |

Random excerpt: two compounds from above, in no set order.

| SMILES | binding response (% of control) |
| --- | --- |
| COc1cc(CCCN2C(N)=NC[C@@H]2Cc2ccccc2)cc(OC)c1OC | inconclusive: 87.3% |
| Cc1ccc(-c2nc(CN(C)Cc3cccc4cnccc34)c(C)o2)s1 | inactive: 109% |

The results go on:

| SMILES | binding response (% of control) |
| --- | --- |
| Nc1nc2nc(-c3cccs3)cc(C(F)(F)F)n2n1 | inconclusive: 101% |
| COC(=O)c1ccccc1NS(=O)(=O)c1ccc(Cl)nc1 | inconclusive: 93.5% |
| COc1ccc(C2Nc3ccccc3C(=O)N2NS(=O)(=O)c2ccccc2)cc1OC (stereo not drawn) | inactive: 95.6% |
| COc1ccc(NC(=O)Cn2nnc(C(=O)Nc3ccccc3C)c2N)cc1 | inactive: 102% |
| NC(N)=N/N=C/c1ccccc1OC(F)F | inconclusive: 123% |
| O=C1CS/C(=N/N=C/c2c[nH]c3ccccc23)N1 | inconclusive: 138% |
| CCOc1ccc2[nH]c(=O)c(CN(CC3COCCO3)C(=O)c3ccc(C)cc3)cc2c1 (stereo not drawn) | inactive: 104% |
| CN(c1cnn(-c2ccccc2)c(=O)c1Cl)n1cccc1 | inconclusive: 127% |
| OC[C@@H](O)C1OC2NC(=S)OC2C1O (stereo partly drawn) | inactive: 102% |
| Cc1ccccc1Nc1nc(N)nc(CN2CCN(C(=O)c3ccccc3)CC2)n1 | inconclusive: 107% |
| O=C(Nc1cc2cccc([N+](=O)[O-])c2oc1=O)c1cccs1 | inconclusive: 87.5% |
| CCc1ccccc1NC(=O)Cn1cccc1C1=NC(c2ccccc2)CO1 (stereo not drawn) | inactive: 127% |
| O=C(NCc1csc2ccc(Cl)cc12)Nc1ccccc1 | inconclusive: 17.8% |
| O=C(Nc1ccc(S(=O)(=O)N2CCCC2)cc1)C1CCCN1C(=O)c1cccs1 (stereo not drawn) | inactive: 104% |
| O=[N+]([O-])c1cc(C(F)(F)F)ccc1SCC(O)CO (stereo not drawn) | inconclusive: 119% |
| CCNC(=S)N1N=C2c3ccccc3CCC2C1c1ccc(F)cc1 (stereo not drawn) | inconclusive: 93.1% |
| CCOC(=O)c1cc(-c2ccccc2)n[nH]1 | inconclusive: 119% |
| CSc1nc2c(c(=O)[nH]1)C(c1cccc(Br)c1)CC(=O)N2 (stereo not drawn) | inactive: 95.5% |
| COc1cccc(Nc2nc(N)c([N+](=O)[O-])c(NCc3ccco3)n2)c1 | inconclusive: 103% |
| COc1ccc(-c2csc(N(CC3CCCO3)C(=O)c3ccccc3)n2)cc1 (stereo not drawn) | inconclusive: 118% |
| CN(CCc1ccccc1)Cc1nc(-c2cnccn2)no1 | inconclusive: 93.6% |

As a working copy, 2 of the compounds above:

| SMILES | binding response (% of control) |
| --- | --- |
| O=C(CCN1CCN(C/C=C/c2ccccc2)CC1)Nc1cccc(F)c1 | inactive: 101% |
| N/C(=N\NS(=O)(=O)c1ccccc1C(F)(F)F)c1ccccn1 | inconclusive: 93.4% |

Source: PubChem BioAssay AID1439 (NMMLSC, 2008)
